From article PMC6162324 come the findings set out here.

Amino acid sequences for entries named in this document (tags omitted).
UniProt Q96CV9: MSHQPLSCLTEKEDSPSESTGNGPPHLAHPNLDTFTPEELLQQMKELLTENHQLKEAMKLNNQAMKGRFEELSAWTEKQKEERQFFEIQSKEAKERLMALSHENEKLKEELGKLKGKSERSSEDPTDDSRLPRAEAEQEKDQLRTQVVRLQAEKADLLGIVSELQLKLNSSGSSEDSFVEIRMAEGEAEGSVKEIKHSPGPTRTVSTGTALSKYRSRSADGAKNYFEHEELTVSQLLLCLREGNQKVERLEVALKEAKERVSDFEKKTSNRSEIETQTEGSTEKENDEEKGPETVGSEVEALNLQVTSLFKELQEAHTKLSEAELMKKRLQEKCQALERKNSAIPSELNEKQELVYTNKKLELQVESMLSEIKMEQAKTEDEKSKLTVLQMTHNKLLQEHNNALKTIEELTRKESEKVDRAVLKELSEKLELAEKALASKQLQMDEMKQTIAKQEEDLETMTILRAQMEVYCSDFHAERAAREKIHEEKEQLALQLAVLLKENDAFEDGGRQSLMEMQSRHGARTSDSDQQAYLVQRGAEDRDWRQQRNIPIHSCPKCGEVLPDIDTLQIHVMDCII

No constants are given. Whether binding was seen depends on the method and setting. In cells and extracts the contact can be indirect. Some entries that bind do so weakly or less than the wild type.

One test has as its target Optineurin (UniProt Q96CV9). The test can be described thus: co-IP; immunoprecipitation of Optn on protein G Dynabeads from lysates of transfected HEK cells (RIPA buffer), immunoblotting with anti-Usp12 and anti-Optn. For orientation: A western blot detects proteins with antibodies after separation by electrophoresis.
Another test concerns the target Usp12-C48S (human) (UniProt O75317). In words: co-IP; immunoprecipitation of Usp12 on protein G Dynabeads from lysates of transfected HEK cells (RIPA buffer), immunoblotting with anti-Usp12 and anti-p62.
For a further test, the target named is Usp12 (human) (UniProt O75317). Described as above.

“Usp12-C48S (from UniProt O75317 1-370) (enzyme)”: the binding entry in the test with Optineurin is given as “binds”.
For “Usp12 (from UniProt O75317 1-370) (enzyme)”, in the test with Optineurin, the binding result is reported as “binds”.
In the case of RFP-p62 (from UniProt Q13501 1-440), the binding result in the test with Usp12-C48S (human) and with Usp12 (human) was “binds” in each case.
